Experimental data published in US20070087001A1 (CENTER FOR MOLECULAR MEDICINE AND IMMUNOLOGY, published 2007).
No constants are given. Whether binding was seen depends on the method and setting. Some results given as binding are weak or reduced against the parent protein; the word gives no strength. Where a sequence is shown, tags or fusion partners need not be part of it.

Amino acid sequences for entries named in this document (tags omitted). Residues count along the entry.
UniProt P17948, residues 27-756: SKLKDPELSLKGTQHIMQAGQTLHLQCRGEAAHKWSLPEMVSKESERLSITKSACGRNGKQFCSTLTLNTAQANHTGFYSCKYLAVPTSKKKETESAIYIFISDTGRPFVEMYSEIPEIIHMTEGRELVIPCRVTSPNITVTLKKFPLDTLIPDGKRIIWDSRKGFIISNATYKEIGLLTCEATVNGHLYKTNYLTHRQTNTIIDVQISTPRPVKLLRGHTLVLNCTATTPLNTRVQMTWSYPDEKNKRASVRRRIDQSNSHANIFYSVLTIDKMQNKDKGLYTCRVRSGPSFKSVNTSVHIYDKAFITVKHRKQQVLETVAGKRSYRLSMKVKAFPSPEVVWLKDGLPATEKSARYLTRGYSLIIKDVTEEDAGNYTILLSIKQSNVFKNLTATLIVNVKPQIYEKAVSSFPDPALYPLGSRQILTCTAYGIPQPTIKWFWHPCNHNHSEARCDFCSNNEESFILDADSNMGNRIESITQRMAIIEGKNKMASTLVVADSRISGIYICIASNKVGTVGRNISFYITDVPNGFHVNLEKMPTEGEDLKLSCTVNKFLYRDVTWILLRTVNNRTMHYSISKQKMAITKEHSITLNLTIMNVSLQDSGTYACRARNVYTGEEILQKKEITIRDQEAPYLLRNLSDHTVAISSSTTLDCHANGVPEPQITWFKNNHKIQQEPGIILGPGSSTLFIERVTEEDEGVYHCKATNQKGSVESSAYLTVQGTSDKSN

Legend:
[1] = target: T1, Recombinant human Flt-1 fusion protein (human, UniProt P17948 27-756); experiment: ELISA on Flt-1-coated wells, FLAG detection, with and without heparin
T1 construct: Bought fusion protein coated on plates at 10 µg/ml; also called VEGFR1; VEGF receptor I

[2] = target: T2, Recombinant human placenta growth factor-2 (PlGF-2) (human) (UniProt P49763); experiment: summary of the ELISA binding assays
T2 sequence (looked up): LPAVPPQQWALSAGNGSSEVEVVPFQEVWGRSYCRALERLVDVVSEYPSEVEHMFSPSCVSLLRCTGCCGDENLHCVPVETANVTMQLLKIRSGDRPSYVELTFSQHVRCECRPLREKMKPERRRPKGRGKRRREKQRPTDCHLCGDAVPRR

[3] = target: T1, Recombinant human Flt-1 fusion protein; experiment: summary of the ELISA binding assays

Measured: binding

SHRYRLAIQLHASDSSSSCVDYKDDDDK (peptide, not shown: small tags and cut ends) [Peptide BP1 (Binding Peptide 1) synthesized with a linker and a C-terminal FLAG epitope]
binds: all assays above
